Measured values taken from PubChem BioAssay AID504444 (National Center for Advancing Translational Sciences (NCATS), 2011).
Out of some 360,000 compounds screened, about 7,500 (2.1%) were called active. Inconclusive results, whose numbers are uncertain, are shown with a selection of clear calls. The call rests on the fitted dose curve; in most records, active means well fitted inhibition curve with a large enough effect; inconclusive means small, poorly fitted or top-dose-only effect, or effect the other way; inactive means flat fitted curve, though single readings scatter. Where the call is inconclusive, the potency comes from a doubtful curve fit.

Assay: Nrf2 qHTS screen for inhibitors; further: nearly all actives have a fitted effect of over 60% in size
Settings: A549 ARE-Fluc reporter, luciferase luminescence, 18-24 h; activity change, negative = inhibition: at 46 µM (top of the series)
Outline: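 Concentration-response testing used A549 ARE_Fluc cells at 5000 cells/well. Following an 18-24 h compound incubation, viability was read by fluorescence (Ex 405/Em 525) and luciferase output by luminescence.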
On the % scale 0 is the no-effect control and ±100 the full control effect; potency means the concentration at half of the fitted maximal effect.

Compound	Potency	activity change, negative = inhibition
CCn1c(NN=O)nc2ccccc21	inconclusive: 11.6 µM [falling, partial curve]	
Cc1ccc(-c2nn(Cc3ccccc3)cc2C=O)cc1C	inconclusive: 32.6 µM [activator, partial curve, poor fit]	
O=C(c1ccc(F)c([N+](=O)[O-])c1)N1CC2CC(C1)c1cccc(=O)n1C2 (stereo not given)	inconclusive: 18.4 µM [falling, single point]	
C=CCn1c(O)c(C=NC2CCN(Cc3ccccc3)CC2)c(=O)[nH]c1=O	inconclusive: 2.59 µM [falling, partial curve, poor fit]	
CC1=CC2OC3CC4OC(=O)C=CC=CC(C(C)O)OCC(O)C5(C)OC5C(=O)OCC2(CC1O)C4(C)C31CO1 (stereo not given)	active: 0.411 µM	
COc1cc2[nH]c(=O)n(-c3ccccc3)c(=O)c2cc1OC		inactive: 17.1%
Cc1ccc(/C=C2\C(=O)NC(=O)N(Cc3ccccc3Cl)C2=O)o1	inconclusive: 13 µM [activator, single point]	
O=C(COc1ccc(S(=O)(=O)N2CCOCC2)cc1)N1CCN(Cc2ccc3c(c2)OCO3)CC1	inconclusive: 9.2 µM [falling, partial curve, poor fit]	
Cn1c(O)c(C=NCCN2CCOCC2)c(=O)n(C)c1=S	inconclusive: 0.13 µM [falling, full curve, poor fit]	
CCCCn1c(O)c(C(C)=NCc2cc(OC)cc(OC)c2)c(=O)[nH]c1=O	inconclusive: 18.4 µM [falling, partial curve, poor fit]	
COc1cccc(OP(=O)(Nc2ccccc2)Oc2cccc(OC)c2)c1		inactive: -27.8%
O=C(c1ccco1)c1cn(Cc2ccc(Cl)cc2)c2ccccc12	inconclusive: 29.1 µM [falling, partial curve, poor fit]	
CO[C@H]1[C@@H](O)[C@@H](C)O[C@H](O[C@H]2[C@H](Oc3cccc4c(O)c5c(=O)oc6ccc(C)c7c(=O)oc(c34)c5c67)O[C@H](C)[C@H](O)[C@@H]2O)[C@@H]1O	inconclusive: 18.4 µM [falling, partial curve, poor fit]	
Cc1cc(C)c2c(ccc3cccc[n+]32)c1	active: 1.3 µM	
C[C@H](CO)N1C[C@H](C)[C@@H](CN(C)Cc2ccc(Cl)c(Cl)c2)Oc2c(NC(=O)c3ccncc3)cccc2C1=O	inconclusive: 29.1 µM [falling, partial curve, poor fit]	
C[C@]12CCC3C(CC[C@H]4C[C@H](OC(=O)c5cccnc5)CC[C@]34C)C1CCC2=O (stereo not given in full)	inconclusive: 16.4 µM [falling, partial curve]	
C[C@]12CCC3C(CC[C@H]4[C@@H](O)[C@H](O)CC[C@]34C)C1CCC2=O (stereo not given in full)		inactive: 0.881%
Cn1c(O)c(N=Nc2cccc(S(=O)(=O)N3CCOCC3)c2)c(=O)n(C)c1=O	inconclusive: 11.6 µM [falling, partial curve, poor fit]	
CCOC(=O)[C@]12Cc3ccsc3[C@H]1N(Cc1ccccc1)C(=O)c1ccccc12	inconclusive: 29.1 µM [falling, single point]	
FC(F)(F)Oc1ccc(C2NCc3ccccc3-n3cccc32)cc1 (stereo not given)	inconclusive: 32.6 µM [falling, partial curve, poor fit]	

Compound	Potency	activity change, negative = inhibition
COC(=O)C1=C(c2ccc(F)cc2OCc2ccccc2)C[C@@H]2CC[C@H]1N2C(=O)N1CCC(C)CC1	inconclusive: 18.4 µM [falling, single point]	
CCC(=NCc1ccco1)c1c(O)n(-c2ccc(C)cc2)c(=O)[nH]c1=O	inconclusive: 16.4 µM [falling, single point]	
Oc1c(Br)c(Br)c(Br)c(Br)c1Br	inconclusive: 29.1 µM [falling, single point]	
CCOc1cc(C)cc2oc(=O)c3c(c12)CCCC3	inconclusive: 0.82 µM [falling, full curve, poor fit]	
COc1ccccc1N1CCN(C(=O)c2cc3c(-c4ccccc4F)nn(C)c3s2)CC1	inconclusive: 29.1 µM [falling, single point]	
COc1cc(NS(=O)(=O)c2ccc3c(c2)oc(=O)n3C)cc(OC)c1OC	inconclusive: 13 µM [falling, partial curve]	
CCCn1c(C(=O)c2ccccc2OC)nc2ccccc21		inactive: 4.64%
CCOC(=O)c1sc(=NC(=O)c2ccc(C)c(C)c2)n(C)c1C	inconclusive: 1.03 µM [activator, partial curve, poor fit]	
CNC(=O)CSP(=S)(OC)OC	inconclusive: 14.6 µM [falling, single point]	
O=C1C=C(NS(=O)(=O)c2ccccc2)C(=O)c2ccccc21	active: 23.1 µM	
Cc1cccc(NC(=O)CSc2nnc([C@@H](N)Cc3c[nH]c4ccccc34)o2)c1C	inconclusive: 1.16 µM [falling, full curve, poor fit]	
CCOc1ccccc1N1C(=O)CC(=O)NC1=O		inactive: -6.39%
CC(C)c1ccc(NC(=O)Cn2c(=O)oc3cc(S(=O)(=O)N4CCCC4)ccc32)cc1	active: 20.6 µM	
CCCCCc1nc2c(c(=O)c3ccccc3n2C)c(=O)n1C1CCCCCC1	inconclusive: 16.4 µM [falling, single point]	
CC(O)C1C=CC=CC(=O)OC2CC3OC4C5OC5(C)C(O)CC4(COC(=O)C(O)C(C)CCO1)C2(C)C31CO1 (stereo not given)	active: 0.259 µM	
O=c1[nH]c(=S)[nH]c(O)c1N=Nc1ccc(S(=O)(=O)N2CCc3ccccc32)cc1		inactive: 19.8%
CCN(CC(=O)Nc1ccc(NC(C)=O)cc1)C(=O)CSC(c1ccccc1)c1ccccc1	inconclusive: 32.6 µM [falling, single point]	
CN1CCc2nc3sc(C#N)c(N)c3c(-c3cccs3)c2C1	inconclusive: 11.6 µM [falling, partial curve, poor fit]	
COc1ccc(O)c2c(=O)c3c(OC)cc4c(c3oc12)C1C=COC1O4 (stereo not given)	inconclusive: 11.6 µM [falling, partial curve, poor fit]	
O=[N+]([O-])c1ccc(NC2CCCC2)c2ccncc12	inconclusive: 7.31 µM [falling, partial curve]	

Arranged by length of the SMILES (descending): part of the list above
Compound	Potency	activity change, negative = inhibition
C[C@]12CCC3C(CC[C@H]4[C@@H](O)[C@H](O)CC[C@]34C)C1CCC2=O (stereo not given in full)		inactive: 0.881%
Cc1cccc(NC(=O)CSc2nnc([C@@H](N)Cc3c[nH]c4ccccc34)o2)c1C	inconclusive: 1.16 µM [falling, full curve, poor fit]	
Cn1c(O)c(N=Nc2cccc(S(=O)(=O)N3CCOCC3)c2)c(=O)n(C)c1=O	inconclusive: 11.6 µM [falling, partial curve, poor fit]	
CCCCn1c(O)c(C(C)=NCc2cc(OC)cc(OC)c2)c(=O)[nH]c1=O	inconclusive: 18.4 µM [falling, partial curve, poor fit]	
COc1ccc(O)c2c(=O)c3c(OC)cc4c(c3oc12)C1C=COC1O4 (stereo not given)	inconclusive: 11.6 µM [falling, partial curve, poor fit]	
Cc1ccc(/C=C2\C(=O)NC(=O)N(Cc3ccccc3Cl)C2=O)o1	inconclusive: 13 µM [activator, single point]	
COc1cccc(OP(=O)(Nc2ccccc2)Oc2cccc(OC)c2)c1		inactive: -27.8%
CN1CCc2nc3sc(C#N)c(N)c3c(-c3cccs3)c2C1	inconclusive: 11.6 µM [falling, partial curve, poor fit]	
O=[N+]([O-])c1ccc(NC2CCCC2)c2ccncc12	inconclusive: 7.31 µM [falling, partial curve]	
CNC(=O)CSP(=S)(OC)OC	inconclusive: 14.6 µM [falling, single point]	
